Data taken from paper PMC13586215.
No constants are given. Whether binding was seen depends on the method and setting. Binding seen in cells or lysates may run through a third protein. These calls come from enrichment with a bait or labelling near it, and not all partners need be listed. No binding means not detected with the bait.

Sequences of proteins named here, by UniProt entry; tags and fusion partners are left off.
UniProt Q17RN3: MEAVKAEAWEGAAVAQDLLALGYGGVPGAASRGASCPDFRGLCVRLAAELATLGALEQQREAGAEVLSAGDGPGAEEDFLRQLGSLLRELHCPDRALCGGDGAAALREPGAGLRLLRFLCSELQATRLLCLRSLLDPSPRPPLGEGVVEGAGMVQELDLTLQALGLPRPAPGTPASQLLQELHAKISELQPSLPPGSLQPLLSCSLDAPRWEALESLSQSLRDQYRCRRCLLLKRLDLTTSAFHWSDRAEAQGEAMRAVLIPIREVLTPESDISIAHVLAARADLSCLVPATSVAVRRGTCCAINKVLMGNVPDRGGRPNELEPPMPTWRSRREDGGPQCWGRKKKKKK

Key:
[1] = target: FLAG-HA-tagged FAM98C (human) (UniProt Q17RN3); assay: affinity purification with mass spectrometry; anti-FLAG IP from HEK FITR cells expressing N-terminally FLAG-HA-tagged full-length FAM98A, FAM98B or FAM98C; eight washes in detergent-free lysis buffer; on-bead digestion, DIA-PASEF LC-MS; cells without construct as control; three independent experiments
[2] = target: N-terminally FLAG-HA-tagged, full-length FAM98A (human) (UniProt Q8NCA5); assay: as above

B1: Ashwin (endogenous) (protein, UniProt Q9BVC5-1 1-232)
chain: MAGDVGGRSCTDSELLLHPELLSQEFLLLTLEQKNIAVETDVRVNKDSLTDLYVQHAIPLPQRDLPKNRWGKMMEKKREQHEIKNETKRSSTVDGLRKRPLIVFDGSSTSTSIKVKKTENGDNDRLKPPPQASFTSNAFRKLSNSSSSVSPLILSSNLPVNNKTEHNNNDAKQNHDLTHRKSPSGPVKSPPLSPVGTTPVKLKRAAPKEEAEAMNNLKPPQAKRKIQHVTWP
binding [1]: no binding | binding [2]: no binding
